# According to the supplement of paper PMC12067093, “Discovery and optimisation of a covalent ligand for TRIM25 and its application to targeted protein ubiquitination” (Chemical Science, 2025):
# By UniProt entry, the sequences of proteins in these tests, tags left out. Where a name states a change or a piece, a line headed by the entry shows the natural chain unless it says otherwise.
# UniProt Q14980: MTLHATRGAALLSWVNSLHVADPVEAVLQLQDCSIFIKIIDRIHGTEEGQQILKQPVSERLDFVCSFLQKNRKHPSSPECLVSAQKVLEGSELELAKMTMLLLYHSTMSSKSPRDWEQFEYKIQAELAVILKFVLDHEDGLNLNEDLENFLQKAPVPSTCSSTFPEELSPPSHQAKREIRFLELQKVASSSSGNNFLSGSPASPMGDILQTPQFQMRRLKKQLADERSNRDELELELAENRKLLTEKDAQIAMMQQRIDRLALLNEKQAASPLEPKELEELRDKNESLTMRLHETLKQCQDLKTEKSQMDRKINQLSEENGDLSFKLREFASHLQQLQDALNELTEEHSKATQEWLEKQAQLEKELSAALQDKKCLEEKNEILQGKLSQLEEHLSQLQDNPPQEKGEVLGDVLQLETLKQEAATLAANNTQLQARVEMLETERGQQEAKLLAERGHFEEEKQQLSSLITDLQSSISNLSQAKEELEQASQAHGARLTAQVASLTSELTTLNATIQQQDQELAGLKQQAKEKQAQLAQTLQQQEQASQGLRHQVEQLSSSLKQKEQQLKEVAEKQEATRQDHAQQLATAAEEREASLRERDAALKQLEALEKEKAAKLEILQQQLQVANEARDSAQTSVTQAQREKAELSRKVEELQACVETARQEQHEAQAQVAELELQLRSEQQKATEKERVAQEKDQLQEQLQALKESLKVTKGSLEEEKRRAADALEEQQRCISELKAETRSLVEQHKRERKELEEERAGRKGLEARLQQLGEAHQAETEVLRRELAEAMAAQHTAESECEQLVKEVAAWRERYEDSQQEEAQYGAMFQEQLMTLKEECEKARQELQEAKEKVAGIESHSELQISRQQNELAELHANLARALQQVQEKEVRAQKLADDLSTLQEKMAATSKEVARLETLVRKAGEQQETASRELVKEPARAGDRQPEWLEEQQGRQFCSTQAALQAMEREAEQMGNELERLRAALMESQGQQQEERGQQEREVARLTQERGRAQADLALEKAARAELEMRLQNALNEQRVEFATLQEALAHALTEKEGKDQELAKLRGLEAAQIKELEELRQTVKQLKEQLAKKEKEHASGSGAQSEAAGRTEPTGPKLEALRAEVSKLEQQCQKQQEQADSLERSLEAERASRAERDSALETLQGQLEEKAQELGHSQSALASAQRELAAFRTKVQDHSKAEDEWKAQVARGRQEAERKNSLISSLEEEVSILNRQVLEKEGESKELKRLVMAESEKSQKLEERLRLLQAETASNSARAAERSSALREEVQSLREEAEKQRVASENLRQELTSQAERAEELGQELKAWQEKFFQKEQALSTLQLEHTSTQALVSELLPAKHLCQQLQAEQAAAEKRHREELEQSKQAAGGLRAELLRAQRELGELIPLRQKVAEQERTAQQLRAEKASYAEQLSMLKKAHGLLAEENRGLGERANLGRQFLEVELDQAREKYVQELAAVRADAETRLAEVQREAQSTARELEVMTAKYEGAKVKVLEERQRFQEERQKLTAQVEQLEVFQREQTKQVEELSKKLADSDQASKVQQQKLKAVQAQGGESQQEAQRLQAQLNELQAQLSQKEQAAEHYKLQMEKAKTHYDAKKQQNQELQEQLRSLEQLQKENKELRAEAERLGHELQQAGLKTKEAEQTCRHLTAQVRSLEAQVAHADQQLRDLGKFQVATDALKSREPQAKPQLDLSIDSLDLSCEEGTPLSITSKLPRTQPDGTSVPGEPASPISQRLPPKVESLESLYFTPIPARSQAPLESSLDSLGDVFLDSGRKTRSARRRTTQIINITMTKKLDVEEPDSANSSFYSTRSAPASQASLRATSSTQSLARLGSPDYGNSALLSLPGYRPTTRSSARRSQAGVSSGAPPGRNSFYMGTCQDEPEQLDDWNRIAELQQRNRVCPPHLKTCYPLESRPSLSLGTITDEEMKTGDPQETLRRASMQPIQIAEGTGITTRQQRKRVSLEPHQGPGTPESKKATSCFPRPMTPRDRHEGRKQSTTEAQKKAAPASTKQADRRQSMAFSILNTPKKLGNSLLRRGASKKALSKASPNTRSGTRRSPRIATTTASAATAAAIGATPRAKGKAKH
# UniProt Q5BJF6: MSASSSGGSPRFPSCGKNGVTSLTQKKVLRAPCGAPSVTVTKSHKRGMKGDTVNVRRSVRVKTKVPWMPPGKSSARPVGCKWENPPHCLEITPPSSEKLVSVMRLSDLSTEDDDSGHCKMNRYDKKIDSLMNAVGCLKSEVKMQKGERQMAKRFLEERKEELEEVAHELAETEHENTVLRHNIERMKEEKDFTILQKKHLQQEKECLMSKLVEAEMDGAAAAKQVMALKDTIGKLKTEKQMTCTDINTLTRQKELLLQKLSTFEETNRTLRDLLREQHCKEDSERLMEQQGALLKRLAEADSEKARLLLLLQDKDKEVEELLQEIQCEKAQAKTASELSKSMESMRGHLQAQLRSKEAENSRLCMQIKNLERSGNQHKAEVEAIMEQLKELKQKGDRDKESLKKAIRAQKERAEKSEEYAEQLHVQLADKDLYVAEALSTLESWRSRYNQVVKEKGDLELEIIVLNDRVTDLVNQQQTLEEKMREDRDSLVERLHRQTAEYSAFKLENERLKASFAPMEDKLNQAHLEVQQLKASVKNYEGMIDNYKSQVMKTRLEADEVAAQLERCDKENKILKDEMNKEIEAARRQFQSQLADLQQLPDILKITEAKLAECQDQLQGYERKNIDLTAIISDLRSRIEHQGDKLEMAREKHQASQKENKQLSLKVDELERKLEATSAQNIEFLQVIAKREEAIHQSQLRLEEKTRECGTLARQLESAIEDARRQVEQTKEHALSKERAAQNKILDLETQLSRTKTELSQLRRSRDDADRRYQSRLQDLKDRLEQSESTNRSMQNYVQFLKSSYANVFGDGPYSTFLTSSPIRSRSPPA
# UniProt Q12769: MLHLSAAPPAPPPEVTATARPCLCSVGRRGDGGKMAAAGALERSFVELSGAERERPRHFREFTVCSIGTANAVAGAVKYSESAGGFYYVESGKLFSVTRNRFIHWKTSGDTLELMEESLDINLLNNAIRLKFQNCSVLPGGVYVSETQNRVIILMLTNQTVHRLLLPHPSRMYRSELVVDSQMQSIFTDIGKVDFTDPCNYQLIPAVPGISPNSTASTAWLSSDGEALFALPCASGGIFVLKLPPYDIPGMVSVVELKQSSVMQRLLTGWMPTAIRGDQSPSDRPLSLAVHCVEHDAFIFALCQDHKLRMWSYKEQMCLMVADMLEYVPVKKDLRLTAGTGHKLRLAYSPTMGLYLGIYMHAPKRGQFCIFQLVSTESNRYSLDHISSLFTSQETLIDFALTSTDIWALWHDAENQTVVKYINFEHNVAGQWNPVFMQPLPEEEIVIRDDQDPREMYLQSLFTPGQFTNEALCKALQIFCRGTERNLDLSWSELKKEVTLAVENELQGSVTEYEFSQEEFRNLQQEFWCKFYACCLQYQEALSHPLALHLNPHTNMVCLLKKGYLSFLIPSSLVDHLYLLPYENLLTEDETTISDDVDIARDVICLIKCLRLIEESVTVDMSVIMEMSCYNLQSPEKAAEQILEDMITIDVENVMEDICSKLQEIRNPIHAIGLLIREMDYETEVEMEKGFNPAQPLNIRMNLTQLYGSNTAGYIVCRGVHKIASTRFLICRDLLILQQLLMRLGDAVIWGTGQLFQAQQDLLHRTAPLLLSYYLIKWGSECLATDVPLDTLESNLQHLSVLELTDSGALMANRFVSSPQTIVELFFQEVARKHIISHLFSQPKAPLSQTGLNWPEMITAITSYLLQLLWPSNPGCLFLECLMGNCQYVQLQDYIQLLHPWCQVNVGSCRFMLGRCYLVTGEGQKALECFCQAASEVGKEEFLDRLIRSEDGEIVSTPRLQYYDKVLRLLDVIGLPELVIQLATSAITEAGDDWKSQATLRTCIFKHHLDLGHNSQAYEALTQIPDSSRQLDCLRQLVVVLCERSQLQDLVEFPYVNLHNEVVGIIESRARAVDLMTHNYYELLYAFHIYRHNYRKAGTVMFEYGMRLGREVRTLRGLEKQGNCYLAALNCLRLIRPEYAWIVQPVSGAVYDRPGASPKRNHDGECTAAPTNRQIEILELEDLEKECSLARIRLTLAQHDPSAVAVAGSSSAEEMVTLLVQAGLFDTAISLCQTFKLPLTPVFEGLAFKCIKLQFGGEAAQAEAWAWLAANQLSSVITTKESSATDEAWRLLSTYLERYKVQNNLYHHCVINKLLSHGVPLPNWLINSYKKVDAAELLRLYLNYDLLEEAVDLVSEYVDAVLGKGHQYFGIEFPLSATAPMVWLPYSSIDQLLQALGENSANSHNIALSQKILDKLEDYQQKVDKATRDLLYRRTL
# UniProt Q9BW27: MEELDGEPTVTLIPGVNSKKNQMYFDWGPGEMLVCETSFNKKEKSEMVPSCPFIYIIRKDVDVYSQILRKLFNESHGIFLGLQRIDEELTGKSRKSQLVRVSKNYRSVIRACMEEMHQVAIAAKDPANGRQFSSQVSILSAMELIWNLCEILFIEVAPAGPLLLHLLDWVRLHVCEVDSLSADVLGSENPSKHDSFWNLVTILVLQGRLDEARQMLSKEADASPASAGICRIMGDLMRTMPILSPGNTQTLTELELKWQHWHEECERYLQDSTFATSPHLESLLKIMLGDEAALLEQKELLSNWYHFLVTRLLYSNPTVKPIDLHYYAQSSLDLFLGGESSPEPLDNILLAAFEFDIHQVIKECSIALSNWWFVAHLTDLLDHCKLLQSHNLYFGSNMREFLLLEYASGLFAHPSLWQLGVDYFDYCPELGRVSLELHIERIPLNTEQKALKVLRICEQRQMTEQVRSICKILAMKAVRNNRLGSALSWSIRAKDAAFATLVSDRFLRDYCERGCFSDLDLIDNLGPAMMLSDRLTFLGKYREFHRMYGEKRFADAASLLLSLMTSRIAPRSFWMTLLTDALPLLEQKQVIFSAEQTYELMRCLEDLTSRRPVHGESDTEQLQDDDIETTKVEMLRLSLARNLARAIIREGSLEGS
# UniProt Q6PK18: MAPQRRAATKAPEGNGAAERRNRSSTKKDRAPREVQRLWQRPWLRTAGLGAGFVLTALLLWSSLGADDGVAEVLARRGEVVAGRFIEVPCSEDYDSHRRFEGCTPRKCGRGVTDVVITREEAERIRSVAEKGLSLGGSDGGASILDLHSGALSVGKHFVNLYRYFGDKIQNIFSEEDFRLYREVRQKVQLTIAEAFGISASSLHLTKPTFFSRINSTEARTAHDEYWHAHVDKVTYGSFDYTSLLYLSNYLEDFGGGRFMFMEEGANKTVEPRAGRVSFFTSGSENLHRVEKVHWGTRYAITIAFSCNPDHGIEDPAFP
# UniProt Q8N543: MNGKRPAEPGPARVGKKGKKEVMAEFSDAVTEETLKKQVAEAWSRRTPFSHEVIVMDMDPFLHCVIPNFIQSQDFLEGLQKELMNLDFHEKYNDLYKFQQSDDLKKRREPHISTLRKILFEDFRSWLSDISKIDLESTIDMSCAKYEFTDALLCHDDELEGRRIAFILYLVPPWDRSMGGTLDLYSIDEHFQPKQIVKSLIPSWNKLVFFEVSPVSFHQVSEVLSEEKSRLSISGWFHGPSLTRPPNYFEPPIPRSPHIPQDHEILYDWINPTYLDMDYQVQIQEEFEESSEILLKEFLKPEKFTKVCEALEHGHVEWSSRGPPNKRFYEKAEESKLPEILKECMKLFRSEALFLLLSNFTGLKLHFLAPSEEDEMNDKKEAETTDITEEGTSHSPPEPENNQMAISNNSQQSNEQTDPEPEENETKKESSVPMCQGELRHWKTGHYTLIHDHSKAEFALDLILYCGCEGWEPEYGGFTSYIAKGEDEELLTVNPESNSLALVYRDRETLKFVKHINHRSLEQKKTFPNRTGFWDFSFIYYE
# UniProt P49757: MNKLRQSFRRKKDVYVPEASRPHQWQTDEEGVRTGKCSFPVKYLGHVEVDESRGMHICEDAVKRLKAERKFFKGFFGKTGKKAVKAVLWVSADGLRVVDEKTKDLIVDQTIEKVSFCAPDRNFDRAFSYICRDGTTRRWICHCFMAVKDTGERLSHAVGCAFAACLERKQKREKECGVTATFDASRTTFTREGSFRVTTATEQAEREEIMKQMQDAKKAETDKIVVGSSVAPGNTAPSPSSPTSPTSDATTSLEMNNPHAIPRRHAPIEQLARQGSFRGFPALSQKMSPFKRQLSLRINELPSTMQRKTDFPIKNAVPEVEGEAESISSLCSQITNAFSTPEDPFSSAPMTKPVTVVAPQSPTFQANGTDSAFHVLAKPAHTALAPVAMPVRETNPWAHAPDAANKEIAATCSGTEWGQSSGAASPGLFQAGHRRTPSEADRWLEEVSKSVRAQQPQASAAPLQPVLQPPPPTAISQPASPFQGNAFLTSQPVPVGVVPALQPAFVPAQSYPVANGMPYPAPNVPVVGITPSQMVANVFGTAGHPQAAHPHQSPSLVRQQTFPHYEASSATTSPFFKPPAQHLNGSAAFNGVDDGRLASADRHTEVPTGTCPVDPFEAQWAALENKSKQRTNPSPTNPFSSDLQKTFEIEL
# This is one part of the list.
# Compound: CC1Cc2ccccc2N1C(=O)C1CCCN(C1)C(=O)CCl (mixture of isomers) [TRIM25 ligand 11 (diastereomer mixture)]
# Test: probe-labelled cysteine peptide fold change vs DMSO (competition) (log2 fold change); higher = less target engagement (more negative = stronger competition)
# Settings: THP-1, incubation time: 4 h
# 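Further: competitive chemoproteomic profiling in live THP-1 cells with an iodoacetamide desthiobiotin (IA-DTB) probe, comparing probe-labelled peptide intensities in compound-treated cells against DMSO-treated controls.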
Target,probe-labelled cysteine peptide fold change (10 µM),probe-labelled cysteine peptide fold change (50 µM)
NUMA1_Q14980_961_QFCSTQAALQAMER (UniProt Q14980),-0.0793,-0.218
NUDT18_Q6ZVK8_100_EEAGLHCEPETLLSVEER (UniProt Q6ZVK8),0.0358,-0.0319
NUMA1_Q14980_1930_VCPPHLK (UniProt Q14980),-0.177,-0.199
NUMA1_Q14980_658_KVEELQACVETAR (UniProt Q14980),-0.0731,-0.0752
ODF2_Q5BJF6_327_EVEELLQEIQCEK (UniProt Q5BJF6),0.19,0.125
NUP43_Q8NFH3_365_SLSVNTLDVLGPCLVCGTDAEAIYVTR (UniProt Q8NFH3),-0.394,0.0422
NUP160_Q12769_1124+1131_QGNCYLAALNCLR (UniProt Q12769),-0.0631,0.114
NUMA1_Q14980-4_1729_PQLDLSIDSLDLSCEEGTPLSITR (UniProt Q14980),-0.0732,0.0128
NUP85_Q9BW27_230_EADASPASAGICR (UniProt Q9BW27),-0.0499,0.00531
OGFOD3_Q6PK18_90_FIEVPCSEDYDSHRR (UniProt Q6PK18),-0.0152,-0.242
OAS2_P29728_361_CFLEQIDSAVNIIR (UniProt P29728),0.185,0.131
OGFOD1_Q8N543_154_YEFTDALLCHDDELEGRR (UniProt Q8N543),0.0585,-0.00364
OGG1_O15527_140_LLRQDPIECLFSFICSSNNNIAR (UniProt O15527),-0.487,-0.127
ODF2_Q5BJF6_364_LCMQIK (UniProt Q5BJF6),-0.0478,0.0437
NUF2_Q9BZD4_111_VNDFETADILCPK (UniProt Q9BZD4),-0.0887,0.000441
NUP85_Q9BW27_51_SEMVPSCPFIYIIR (UniProt Q9BW27),-0.141,-0.189
NUMB_P49757_58_GMHICEDAVKR (UniProt P49757),-0.162,-0.22
OGFOD2_Q6N063_209_FLQPLMALLYPDCGGGR (UniProt Q6N063),0.163,0.402
OBSL1_O75147_362_EHGIAVLECK (UniProt O75147),-0.0165,0.0181
NUDCD1_Q96RS6_67_LRDDQYTLEHMHAFGMYNYLHCDSWYQDSVYYIDTLGR (UniProt Q96RS6),0.223,-0.0547
NUP188_Q5SRE5_9_AAAAGGPCVR (UniProt Q5SRE5),0.0541,0.095
OCIAD2_Q56VL3_27_QSLLFCPK (UniProt Q56VL3),-0.065,-0.0766
NXF1_Q9UBU9_143_CSVPFTPIEFHYENTR (UniProt Q9UBU9),-0.172,0.46
NUP205_Q92621_237_QSLAESLFAWACQSPLGKEDTLLLIGHLER (UniProt Q92621),-0.0149,0.0914
OGFR_Q9NZT2_87_DCNGDTPNLSFYR (UniProt Q9NZT2),-0.0357,-0.0979

# Record cards (already shown).
# NUP85_Q9BW27_230_EADASPASAGICR (UniProt Q9BW27) as listed: probe-labelled cysteine peptide fold change (10 µM): -0.0499; probe-labelled cysteine peptide fold change (50 µM): 0.00531
# NUP160_Q12769_1124+1131_QGNCYLAALNCLR (UniProt Q12769) as listed: probe-labelled cysteine peptide fold change (10 µM): -0.0631; probe-labelled cysteine peptide fold change (50 µM): 0.114
